In assay [1] the target is RPA194 (a subunit of Pol I) (rat (endogenous in cortical neurons)) (UniProt O54889). The assay can be described thus: co-IP; Pol I immunoprecipitated with an antibody against RPA194 from nuclear extracts of cortical neurons infected with shCoro2B lentivirus or scramble control for 5 days; UBF and TAFIp110 detected on immunoblots.
Assay [2] concerns the target T1, upstream binding factor (endogenous, cortical neurons) (rat (endogenous in cortical neurons)) (UniProt P25977).
T1 sequence: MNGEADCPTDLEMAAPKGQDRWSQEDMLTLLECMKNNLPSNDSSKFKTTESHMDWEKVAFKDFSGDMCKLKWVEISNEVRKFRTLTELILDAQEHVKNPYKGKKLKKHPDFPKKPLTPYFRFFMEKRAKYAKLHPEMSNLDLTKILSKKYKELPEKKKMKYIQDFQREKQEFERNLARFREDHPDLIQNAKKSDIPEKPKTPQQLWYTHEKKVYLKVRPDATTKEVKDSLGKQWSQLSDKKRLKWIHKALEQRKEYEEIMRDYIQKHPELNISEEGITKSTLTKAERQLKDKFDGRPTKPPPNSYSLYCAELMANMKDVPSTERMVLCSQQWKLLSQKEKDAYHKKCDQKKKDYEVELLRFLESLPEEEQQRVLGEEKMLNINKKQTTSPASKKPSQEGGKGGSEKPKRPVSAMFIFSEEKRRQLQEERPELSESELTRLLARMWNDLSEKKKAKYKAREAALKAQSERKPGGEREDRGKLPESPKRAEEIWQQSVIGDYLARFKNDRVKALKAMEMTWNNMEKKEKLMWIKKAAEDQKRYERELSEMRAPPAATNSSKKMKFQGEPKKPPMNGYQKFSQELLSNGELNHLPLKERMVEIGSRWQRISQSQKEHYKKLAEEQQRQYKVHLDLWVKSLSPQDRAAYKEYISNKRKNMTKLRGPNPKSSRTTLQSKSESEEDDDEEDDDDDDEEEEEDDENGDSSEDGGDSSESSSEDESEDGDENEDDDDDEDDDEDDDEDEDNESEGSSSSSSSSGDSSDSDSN
The assay can be described thus: co-IP; UBF immunoprecipitated from nuclear extracts of cortical neurons cultured for 14 days; mouse IgG as negative control; antibody overnight at 4 °C, protein G beads; western blot.

By UniProt entry, the sequences of proteins in these tests, tags left out.
UniProt O54889: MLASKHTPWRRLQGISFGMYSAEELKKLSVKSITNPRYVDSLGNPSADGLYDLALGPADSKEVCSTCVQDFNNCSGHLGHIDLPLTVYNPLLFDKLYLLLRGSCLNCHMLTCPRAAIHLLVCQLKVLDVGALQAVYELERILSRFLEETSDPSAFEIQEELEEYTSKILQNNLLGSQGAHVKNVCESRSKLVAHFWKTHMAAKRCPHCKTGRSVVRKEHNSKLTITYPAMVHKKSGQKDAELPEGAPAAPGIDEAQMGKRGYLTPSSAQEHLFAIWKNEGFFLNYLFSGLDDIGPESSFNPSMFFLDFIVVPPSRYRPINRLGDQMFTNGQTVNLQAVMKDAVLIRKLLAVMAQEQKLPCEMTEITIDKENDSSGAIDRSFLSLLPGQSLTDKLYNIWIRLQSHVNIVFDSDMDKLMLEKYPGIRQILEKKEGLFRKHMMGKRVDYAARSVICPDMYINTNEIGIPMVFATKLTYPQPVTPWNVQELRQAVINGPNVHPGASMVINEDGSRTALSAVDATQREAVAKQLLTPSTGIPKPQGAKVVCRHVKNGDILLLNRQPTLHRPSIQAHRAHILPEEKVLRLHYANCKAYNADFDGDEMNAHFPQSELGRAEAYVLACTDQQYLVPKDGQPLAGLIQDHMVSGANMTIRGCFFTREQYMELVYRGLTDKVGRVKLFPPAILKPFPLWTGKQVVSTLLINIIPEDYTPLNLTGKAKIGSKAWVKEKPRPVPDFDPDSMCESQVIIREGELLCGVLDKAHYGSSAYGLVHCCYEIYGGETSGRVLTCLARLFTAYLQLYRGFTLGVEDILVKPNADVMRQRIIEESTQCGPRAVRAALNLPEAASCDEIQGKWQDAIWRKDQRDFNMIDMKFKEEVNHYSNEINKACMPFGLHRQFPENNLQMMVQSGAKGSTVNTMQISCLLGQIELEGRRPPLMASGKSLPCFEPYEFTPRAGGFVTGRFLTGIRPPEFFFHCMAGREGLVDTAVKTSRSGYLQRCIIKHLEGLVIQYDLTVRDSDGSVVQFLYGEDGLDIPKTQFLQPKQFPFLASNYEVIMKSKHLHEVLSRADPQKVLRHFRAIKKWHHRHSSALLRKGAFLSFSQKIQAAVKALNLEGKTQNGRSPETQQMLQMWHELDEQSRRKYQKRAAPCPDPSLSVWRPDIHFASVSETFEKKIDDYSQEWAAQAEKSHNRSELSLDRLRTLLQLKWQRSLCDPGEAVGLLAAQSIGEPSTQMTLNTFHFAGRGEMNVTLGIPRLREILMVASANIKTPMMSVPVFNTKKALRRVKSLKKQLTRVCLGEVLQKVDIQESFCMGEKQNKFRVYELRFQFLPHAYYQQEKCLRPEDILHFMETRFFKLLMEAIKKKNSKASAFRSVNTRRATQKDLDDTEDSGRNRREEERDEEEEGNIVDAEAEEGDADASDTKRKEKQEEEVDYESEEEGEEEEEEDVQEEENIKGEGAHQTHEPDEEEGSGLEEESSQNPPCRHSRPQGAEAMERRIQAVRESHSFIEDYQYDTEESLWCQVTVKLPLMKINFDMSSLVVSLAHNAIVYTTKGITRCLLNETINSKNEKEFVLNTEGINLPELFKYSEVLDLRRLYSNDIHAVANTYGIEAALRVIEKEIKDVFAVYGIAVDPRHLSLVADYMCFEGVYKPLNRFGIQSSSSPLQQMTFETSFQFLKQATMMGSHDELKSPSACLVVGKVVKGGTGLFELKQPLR

No constants are given. Whether binding was seen depends on the method and setting. In cells and extracts the contact can be indirect. Some binding calls cover weakened binding; strength is not graded here.

B1: TAFIp110 (a subunit of SL-1 complex) (protein, UniProt Q6P773 1-842)
chain: MDFPSTLRPSLFMAGPLGMTDGPDLSFMCSWRDALTLPGAQPQNCRDQTSSFAKNLLWEPSTPGPLPLVPPGPDPWDPGLAAQDFLFRGGHYYQYQSRVVLDVTEQLSRFLWDHGDIAFAPLGKLMLENFRLEGNRGYSKKVTIVSVKRLLQDLGGHQPWGCPWASLSRRLRRFSILGGPVLSRSVSLLMGRLLHEELATRWEQLLMDEAFTGGALAWLPGRTARAGQLVYPSGGALDKLYFQEVSVNSGGNPRVLEDPGHIQLRGPVRQVVTSTVQGETLLAVRSDYHCAVWKIDKQEPPAPLQVLQVEKGATGISLSPHLSGELAICSRSGTVCLWTPQDGLQTIYKDPETLAFRDPSPWRWADFTAHPRVLTVGDRTGVKMVDIQGPPGCGLLLFCAGAEAACQKGERVLLAQYLGQPGPASTSLHLICTQFSIYLMDERLPLVPMLKWDHGLPSAPLLARLLPPASPGYPRPLLLGGQGGQVQLLHIAGEGTSIPQLAGPPQSLPSITDSLSAFPLLEPKRQQQLQERLEAPVIGLAAAPPCASAPGLLLFQLSAAGDVFYQHLRIQQTSSLREPDHPAPERPASRAAAPPVDQGSTPSWTSRASARCSRWLEALMELSPTNPVWAAPTFSHRRFLGHMERQKSQETLAQKLQAAMAKGQLLRPGDLGTLPKAEPPPAPQCSQQDELTERLTKAWEGQAAAWWKRHQDQTSGSQRQSKRPKRRTQLSSTFSSFTSYMDSPDASSAPHSQDLSNSEACPQPPRTPPSQELTQELWAQGVQHERRQTLRDYMAKLPLQDNPGPVATPPSQTSSRQTRSFRQQTPVLSGSHPPRKKPRMGF
Take B1: the binding entry in assay [1] was “binds”.

B2: coronin 2B (endogenous, cortical neurons) (protein, UniProt F1LMV9 1-480)
chain: MTVTKMSWRPQYRSSKFRNVYGKVANREHCFDGIPITKNVHDNHFCAVNARFLAIVTESAGGGSFLVIPLEQTGRIEPNYPKVCGHQGNVLDIKWNPFIDNIIASCSEDTSVRIWEIPEGGLKRNMTEALLELHGHSRRVGLVEWHPTTNNILFSAGYDYKVLIWNLDIGEPVKMIDCHTDVILCMSFNTDGSLLTTTCKDKKLRVIEPRSGRVLQEANCKNHRVNRVVFLGNMKRLLTTGVSRWNTRQIALWDQEDLSMPMIEEEIDGLSGLLFPFYDADTHMLYLAGKGDGNIRYYEISTEKPYLSYLMEFRSPAPQKGLGVMPKHGLDVSACEVFRFYKLVTLKGLIEPISMIVPRRSDSYQEDIYPMTPGTEPALTPDEWLGGVNRDPVLMSLKEGYKKSSKVVFKAPIREKKSVVVNGIDLLENVPPRTENELLRMFFRQQDEIRRLKEELAQKDIRLRQLQLELKNLRNNPKNC
Take B2: the binding entry in assay [2] was “binds”.

B3: upstream binding factor (endogenous, cortical neurons) (protein, UniProt P25977 1-764)
chain: MNGEADCPTDLEMAAPKGQDRWSQEDMLTLLECMKNNLPSNDSSKFKTTESHMDWEKVAFKDFSGDMCKLKWVEISNEVRKFRTLTELILDAQEHVKNPYKGKKLKKHPDFPKKPLTPYFRFFMEKRAKYAKLHPEMSNLDLTKILSKKYKELPEKKKMKYIQDFQREKQEFERNLARFREDHPDLIQNAKKSDIPEKPKTPQQLWYTHEKKVYLKVRPDATTKEVKDSLGKQWSQLSDKKRLKWIHKALEQRKEYEEIMRDYIQKHPELNISEEGITKSTLTKAERQLKDKFDGRPTKPPPNSYSLYCAELMANMKDVPSTERMVLCSQQWKLLSQKEKDAYHKKCDQKKKDYEVELLRFLESLPEEEQQRVLGEEKMLNINKKQTTSPASKKPSQEGGKGGSEKPKRPVSAMFIFSEEKRRQLQEERPELSESELTRLLARMWNDLSEKKKAKYKAREAALKAQSERKPGGEREDRGKLPESPKRAEEIWQQSVIGDYLARFKNDRVKALKAMEMTWNNMEKKEKLMWIKKAAEDQKRYERELSEMRAPPAATNSSKKMKFQGEPKKPPMNGYQKFSQELLSNGELNHLPLKERMVEIGSRWQRISQSQKEHYKKLAEEQQRQYKVHLDLWVKSLSPQDRAAYKEYISNKRKNMTKLRGPNPKSSRTTLQSKSESEEDDDEEDDDDDDEEEEEDDENGDSSEDGGDSSESSSEDESEDGDENEDDDDDEDDDEDDDEDEDNESEGSSSSSSSSGDSSDSDSN
Take B3: the binding result in assay [1] is on record as “binds”.

For the origin of these results see article PMC11211331.
